The results in this text go back to patent publication US20210198349A1 (NEW YORK UNIVERSITY, published 2021).

This assay addresses PHF purified from human AD brain (human). Nature of the assay: dot blot on PHF purified from human AD brain.

Positions count from the first letter of the chain named. These are yes or no findings as the source states them, for the method shown. Binding calls can cover weak binding; strength is not graded here.

B1: Antibody 5G2A3 (antibody, V domains shown)
VH: EVKLVESGGGLVKPGGSLTLSCAASGFTFSSYAMSWVRQTPEKSLEWVASISSGGNTFYPDTVKGRFTISRDNARNILYLQMSGLRSEDTAIYYCARRGDPNMITTLFGYWGQGTLVTISA
VL: DVLMTQTPLSLPVSLGDQASISCRSSQSILHRNGNTYLDWFLLKPGQSPKLLIYKVSNRFSGVPDRFSGSGSGTDFTLKISRVEAEDLGVYYCFQGSHVPWTFGGGTKLEIK
notes: Hybridoma-derived monoclonal antibody; also called 5G2A3/5G2G6
Turning to B1, the binding entry is on record as “binds”.

B2: Antibody 1G11A10 (antibody, V domains shown)
VH: EVKLVESGGGLMKPGGSLKLSCAASGFTFSSYAMSWVRQSPEKRLEWVASISSGGQTYSPDSVKGRFTISRDNARNILYLQMRNLRSEDTAMYYCASRGDPTMTATLFVYWGQGTLVTVS
VL: B1 VL with L30I, H31N, R32S, D39E, F41Y, L43Q, A85T, V90I
notes: Hybridoma-derived monoclonal antibody
Take B2: the binding result is “binds”.
